In the M2OR odorant receptor database:
This is a selection; strong and weak results do not stand in their true shares. Calls are pooled over several reports, among them a noisy single-well screen. The list shows a part of the results. The list shows a part of the results.

How the values were obtained:
Conditions in all cases: stereoisomer not certain
OR5AN1 (Homo sapiens) = molecular target: T1, OR5AN1 (Homo sapiens) (UniProt Q8NGI8)
T1 sequence (whole entry): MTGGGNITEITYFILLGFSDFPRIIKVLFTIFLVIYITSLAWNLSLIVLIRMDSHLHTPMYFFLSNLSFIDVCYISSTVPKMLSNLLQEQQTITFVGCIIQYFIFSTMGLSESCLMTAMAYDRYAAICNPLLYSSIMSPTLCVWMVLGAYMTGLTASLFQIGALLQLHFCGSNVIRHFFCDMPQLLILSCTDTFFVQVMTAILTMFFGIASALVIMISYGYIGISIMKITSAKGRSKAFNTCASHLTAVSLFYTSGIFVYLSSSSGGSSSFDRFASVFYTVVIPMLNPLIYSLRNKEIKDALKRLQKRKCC
Method in brief: (§1)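 Whether a receptor–molecule pair is responsive (active) rests on the original authors' judgment that its measured signal was statistically different from baseline. Pairs without that judgment are non-responsive (inactive). Sources used varied assay methods, commonly transient luciferase assays in mammalian cell lines.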

OR5AR1 (Homo sapiens) = molecular target: T2, OR5AR1 (Homo sapiens) (UniProt Q8NGP9)
T2 sequence (whole entry): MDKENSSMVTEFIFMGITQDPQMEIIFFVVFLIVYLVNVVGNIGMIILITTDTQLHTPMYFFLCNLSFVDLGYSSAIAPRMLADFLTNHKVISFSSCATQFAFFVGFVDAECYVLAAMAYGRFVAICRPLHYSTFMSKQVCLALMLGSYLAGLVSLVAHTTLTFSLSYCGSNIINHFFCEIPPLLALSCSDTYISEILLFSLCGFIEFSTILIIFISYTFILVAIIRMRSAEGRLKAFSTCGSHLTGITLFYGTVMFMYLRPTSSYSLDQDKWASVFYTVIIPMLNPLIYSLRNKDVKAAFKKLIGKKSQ
Method in brief: as §1

OR5AS1 (Homo sapiens) = molecular target: T3, OR5AS1 (Homo sapiens) (UniProt Q8N127)
T3 sequence (whole entry): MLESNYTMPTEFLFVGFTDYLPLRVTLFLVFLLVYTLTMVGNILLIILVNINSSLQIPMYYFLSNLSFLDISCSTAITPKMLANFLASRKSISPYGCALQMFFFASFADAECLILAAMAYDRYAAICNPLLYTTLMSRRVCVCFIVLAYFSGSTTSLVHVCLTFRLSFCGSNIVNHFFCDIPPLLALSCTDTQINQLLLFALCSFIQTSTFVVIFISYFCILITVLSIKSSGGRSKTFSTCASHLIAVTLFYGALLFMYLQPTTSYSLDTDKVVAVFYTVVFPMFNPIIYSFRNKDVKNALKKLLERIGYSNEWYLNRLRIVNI
Method in brief: as §1

OR5AU1 (Homo sapiens) = molecular target: T4, OR5AU1 (Homo sapiens) (UniProt Q8NGC0)
T4 sequence (whole entry): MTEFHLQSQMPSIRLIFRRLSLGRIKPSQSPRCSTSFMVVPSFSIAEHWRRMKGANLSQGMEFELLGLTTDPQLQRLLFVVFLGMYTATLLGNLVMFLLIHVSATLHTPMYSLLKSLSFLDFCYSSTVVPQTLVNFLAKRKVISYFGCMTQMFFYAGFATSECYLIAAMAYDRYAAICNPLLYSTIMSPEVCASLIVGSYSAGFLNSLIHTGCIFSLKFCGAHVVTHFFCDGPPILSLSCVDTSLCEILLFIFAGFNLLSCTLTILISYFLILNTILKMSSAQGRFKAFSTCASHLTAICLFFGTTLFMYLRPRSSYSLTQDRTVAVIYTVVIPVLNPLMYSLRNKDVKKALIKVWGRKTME
Method in brief: as §1

OR5B17 (Homo sapiens) = molecular target: T5, OR5B17 (Homo sapiens) (UniProt Q8NGF7)
T5 sequence (whole entry): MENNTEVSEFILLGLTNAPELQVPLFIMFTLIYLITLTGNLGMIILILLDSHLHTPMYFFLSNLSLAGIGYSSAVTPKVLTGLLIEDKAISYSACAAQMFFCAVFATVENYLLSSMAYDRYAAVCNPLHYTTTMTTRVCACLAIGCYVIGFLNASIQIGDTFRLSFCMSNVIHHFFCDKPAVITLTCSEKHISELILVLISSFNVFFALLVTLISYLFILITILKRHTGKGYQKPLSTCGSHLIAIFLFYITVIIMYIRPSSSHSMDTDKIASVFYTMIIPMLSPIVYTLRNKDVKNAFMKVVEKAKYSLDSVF
Method in brief: as §1

OR5B2 = test system: T6, OR5B2
T6 sequence (whole entry): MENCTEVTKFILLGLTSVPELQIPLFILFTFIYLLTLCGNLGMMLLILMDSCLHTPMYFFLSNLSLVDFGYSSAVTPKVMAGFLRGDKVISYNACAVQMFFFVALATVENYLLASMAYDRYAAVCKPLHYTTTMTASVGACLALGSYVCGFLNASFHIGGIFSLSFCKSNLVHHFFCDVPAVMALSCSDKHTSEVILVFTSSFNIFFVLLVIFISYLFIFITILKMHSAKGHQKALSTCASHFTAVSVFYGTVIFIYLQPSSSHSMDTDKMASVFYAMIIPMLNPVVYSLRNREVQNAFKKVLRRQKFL
Method in brief: as §1

OR5B3 (Homo sapiens) = molecular target: T7, OR5B3 (Homo sapiens) (UniProt Q8NH48)
T7 sequence (whole entry): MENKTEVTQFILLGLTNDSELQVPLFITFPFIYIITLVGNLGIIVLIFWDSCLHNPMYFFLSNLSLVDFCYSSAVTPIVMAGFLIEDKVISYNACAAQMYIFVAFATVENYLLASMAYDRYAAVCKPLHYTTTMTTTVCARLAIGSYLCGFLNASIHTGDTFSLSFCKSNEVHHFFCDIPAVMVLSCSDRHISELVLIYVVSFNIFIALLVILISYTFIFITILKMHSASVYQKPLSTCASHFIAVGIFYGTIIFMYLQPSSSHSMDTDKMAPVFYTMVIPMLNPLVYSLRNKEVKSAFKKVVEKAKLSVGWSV
Method in brief: as §1

OR5BC = test system: T8, OR5BC
T8 sequence (whole entry): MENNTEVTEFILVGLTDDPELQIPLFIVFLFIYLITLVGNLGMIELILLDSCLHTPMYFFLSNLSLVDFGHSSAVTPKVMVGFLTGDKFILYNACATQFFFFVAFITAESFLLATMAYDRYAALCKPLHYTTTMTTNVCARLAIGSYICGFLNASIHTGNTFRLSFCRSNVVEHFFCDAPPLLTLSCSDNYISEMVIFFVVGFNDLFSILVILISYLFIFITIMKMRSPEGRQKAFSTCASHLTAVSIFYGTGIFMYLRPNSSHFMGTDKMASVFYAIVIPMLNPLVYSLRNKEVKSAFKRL
Method in brief: as §1

OR5BL = test system: T9, OR5BL
T9 sequence (whole entry): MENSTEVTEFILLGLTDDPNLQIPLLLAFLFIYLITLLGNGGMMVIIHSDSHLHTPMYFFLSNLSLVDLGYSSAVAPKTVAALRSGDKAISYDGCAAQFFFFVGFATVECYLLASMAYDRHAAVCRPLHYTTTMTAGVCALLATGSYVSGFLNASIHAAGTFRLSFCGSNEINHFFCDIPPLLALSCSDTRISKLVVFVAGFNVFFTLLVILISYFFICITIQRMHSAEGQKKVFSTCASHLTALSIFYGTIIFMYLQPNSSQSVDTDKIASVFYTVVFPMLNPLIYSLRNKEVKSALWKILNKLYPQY
Method in brief: as §1

OR5C1 (Homo sapiens) = molecular target: T10, OR5C1 (Homo sapiens) (UniProt Q8NGR4)
T10 sequence (whole entry): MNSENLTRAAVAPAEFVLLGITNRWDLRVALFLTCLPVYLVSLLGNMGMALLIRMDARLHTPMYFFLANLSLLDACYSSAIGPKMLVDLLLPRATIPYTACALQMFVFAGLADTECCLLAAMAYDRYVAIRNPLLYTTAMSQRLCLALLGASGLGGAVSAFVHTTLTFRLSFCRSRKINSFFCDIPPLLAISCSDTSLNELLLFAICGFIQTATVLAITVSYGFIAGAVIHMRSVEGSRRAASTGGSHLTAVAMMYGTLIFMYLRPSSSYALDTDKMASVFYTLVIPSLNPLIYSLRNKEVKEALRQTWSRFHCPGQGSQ
Method in brief: as §1

Measured: odorant receptor agonist call;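 also: active if original authors judged signal statistically different from baseline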

CCCCOC(C)=O
inactive: all assays above
